Two molecules from publication doi:10.1101/2024.05.31.596839 can be followed below.

No constants are given. Whether binding was seen depends on the method and setting. Some entries that bind do so weakly or less than the wild type.

The target in one test is T1, SoYb (Drosophila) (UniProt Q9VL52).
T1 sequence: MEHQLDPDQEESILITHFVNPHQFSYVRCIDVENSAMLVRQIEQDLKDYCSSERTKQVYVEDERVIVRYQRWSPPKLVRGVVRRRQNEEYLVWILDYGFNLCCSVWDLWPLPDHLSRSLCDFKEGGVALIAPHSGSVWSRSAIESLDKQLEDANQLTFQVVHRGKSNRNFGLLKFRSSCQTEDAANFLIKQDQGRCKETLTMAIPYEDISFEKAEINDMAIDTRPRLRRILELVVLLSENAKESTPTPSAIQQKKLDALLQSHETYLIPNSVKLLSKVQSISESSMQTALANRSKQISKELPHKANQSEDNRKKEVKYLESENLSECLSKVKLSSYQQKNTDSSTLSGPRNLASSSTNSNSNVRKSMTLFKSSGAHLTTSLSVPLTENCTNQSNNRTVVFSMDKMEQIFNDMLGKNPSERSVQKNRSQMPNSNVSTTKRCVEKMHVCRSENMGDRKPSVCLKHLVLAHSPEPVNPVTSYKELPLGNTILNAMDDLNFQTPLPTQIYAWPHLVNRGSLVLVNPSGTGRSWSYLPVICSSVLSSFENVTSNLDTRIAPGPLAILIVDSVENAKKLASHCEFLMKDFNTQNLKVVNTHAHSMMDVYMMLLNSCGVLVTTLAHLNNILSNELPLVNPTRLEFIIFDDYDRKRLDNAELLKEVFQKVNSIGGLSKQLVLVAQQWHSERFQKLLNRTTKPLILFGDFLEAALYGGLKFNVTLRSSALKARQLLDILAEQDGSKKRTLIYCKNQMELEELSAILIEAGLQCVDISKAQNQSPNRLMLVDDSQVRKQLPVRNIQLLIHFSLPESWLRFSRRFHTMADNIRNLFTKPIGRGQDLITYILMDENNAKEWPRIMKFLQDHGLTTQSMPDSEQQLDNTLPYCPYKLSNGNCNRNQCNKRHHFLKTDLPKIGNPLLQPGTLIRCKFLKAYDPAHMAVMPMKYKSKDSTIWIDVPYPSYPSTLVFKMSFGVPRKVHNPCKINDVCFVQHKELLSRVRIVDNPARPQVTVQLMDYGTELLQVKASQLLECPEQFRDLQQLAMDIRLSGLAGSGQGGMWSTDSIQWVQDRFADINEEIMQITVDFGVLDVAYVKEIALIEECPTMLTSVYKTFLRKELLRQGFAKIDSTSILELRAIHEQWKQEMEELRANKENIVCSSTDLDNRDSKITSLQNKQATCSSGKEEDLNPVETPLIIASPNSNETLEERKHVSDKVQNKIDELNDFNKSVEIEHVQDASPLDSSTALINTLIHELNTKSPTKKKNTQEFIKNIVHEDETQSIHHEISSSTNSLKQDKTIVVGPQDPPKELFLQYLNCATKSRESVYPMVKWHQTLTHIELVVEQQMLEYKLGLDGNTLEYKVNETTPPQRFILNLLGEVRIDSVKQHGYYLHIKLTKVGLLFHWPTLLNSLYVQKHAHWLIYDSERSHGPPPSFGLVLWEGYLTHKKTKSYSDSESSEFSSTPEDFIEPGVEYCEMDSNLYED
Briefly: ReLo.

The target of another test is T2, Vasa (Drosophila) (UniProt P09052).
T2 sequence: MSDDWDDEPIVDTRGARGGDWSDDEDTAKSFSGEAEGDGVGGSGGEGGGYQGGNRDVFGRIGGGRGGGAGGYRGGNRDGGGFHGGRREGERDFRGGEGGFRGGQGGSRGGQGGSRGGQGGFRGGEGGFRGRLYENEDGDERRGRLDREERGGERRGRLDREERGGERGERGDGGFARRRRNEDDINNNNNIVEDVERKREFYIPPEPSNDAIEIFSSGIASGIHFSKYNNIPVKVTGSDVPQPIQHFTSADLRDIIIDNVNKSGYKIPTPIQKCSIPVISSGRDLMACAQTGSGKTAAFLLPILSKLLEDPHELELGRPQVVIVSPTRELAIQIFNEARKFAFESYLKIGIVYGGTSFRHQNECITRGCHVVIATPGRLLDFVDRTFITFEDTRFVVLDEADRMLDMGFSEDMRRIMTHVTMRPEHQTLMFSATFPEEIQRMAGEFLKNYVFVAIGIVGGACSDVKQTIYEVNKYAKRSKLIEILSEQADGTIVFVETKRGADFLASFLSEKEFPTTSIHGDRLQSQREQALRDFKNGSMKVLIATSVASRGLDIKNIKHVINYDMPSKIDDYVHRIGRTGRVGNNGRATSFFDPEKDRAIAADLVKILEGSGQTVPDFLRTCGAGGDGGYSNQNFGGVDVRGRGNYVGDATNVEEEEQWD
Briefly: ReLo.

B1: BoYb (protein, UniProt Q9VNP5 1-1059)
chain: MIKISDEKTWQSSRDSVYEVGDSYSGQNANRPLVATNCSEYAVAHANCQLRPVRRFAEVSLLPDILETMRNLGLNRLLRLQSYTWPHLAGGSGHGAMIVGSPASGRTFAYIPPVCHAVSRALMDFTGQCEDVEHDISQPDRYGPIALILVPDLRRVHQVSAMCLALLRKAHKNDSVTLALNVSSTKSSQFFLKLLNGVGCLVATPAQLVWFWQEAPGLMRFPCLQFLVYDDVDLMSREQLQDVQQVLQEILPLSHSPQVVMVSKSYCHTLMSKLRAVNDKPALVFGDILEAALYGGTRIRISIMRSEAKANAVVQMLQQCSPEEFRTVIFCSDDGDMQCLVAALEVQHYSCLPYYQTADLEVRQQVHSWQARSNGVILLCTDNCPELDIRDAHTIIHHSMSHSWSKFKLRHLKISDNLCNMVKPTASIVKKPLYSLVLLDDNNHRQLPRLVDFLQLHQKVDHRLVEVAKRIRQELGKARNDQHQLCDQILVLGKCYDPVCESRHRLSHIDRRPDYLPASGDVKVQLVKVYSPTHFCVRLLEHLPPKGTWRMMEYSAVQEFRMQLTQIKEPRRYWPPVAGAICMYHTTFTKERVRVLKVAAIKNTNIVQSDLTVKLQALDVDTRIFSTNCGKLFECPEALQQEAPLACDLRLPGWVPYFGERSWTEENIRNVNLILTQLPKDHFLQAKILFVAAGTLFVQDLVAIMYADQFKAHVRHLSLARRLVEATLVKRSENAAEMIREFFAEVIIEDDIDENVQDSKEKANSKPHEKMKGKMTDQPAKLQSQPPLSGRCLRLANMAHESVKENQLHQELQERRYETPEIPHQSNESDIPQSNEDRFSQLYECIMNCASLQLEDESKPAKHPDHVLSESVEFHKIMTNEDATPDHTQEKTALLLLPNNVARPSVTYYQTMTTLEFQVFLPEDDHDYKALLLGAQLFFRAISKSSDLILQFIMTLRFPYSSMSHNIRGRTVYISVKKLLALIDPLAFREYRFLKPNHDLFDKVDKQLQETQNRLVRFLEDMNYVKRNFEGQEKRETSEDEEVNVEGIERPDCHKIWDL
For the molecule B1, the binding entry in the test with SoYb (Drosophila) is “no binding”.

B2: Krimper (protein, UniProt A1ZAC4 1-746)
chain: MNLEDISMIMKLFDSNMHKLQGNLRSYQTEMHQIHKELTEKLSHADLLYRSLIPLHDHLVASLSEVNAHVMKLNVQLHINRQSVRLGDYEYYEKSIDNPYSSIRSGLQAIEKPGCAEAICQSSKPAFVECLPSSTSEEVPVVAVQEASSTNQLDAISVVNENLSEERDATPQPLAVSKNMEETMPSNPFHEQLEGSLEEIPVGSKIVVETEKANNPVRSEASAPATSDNQSLLAAKQGTQTIGTGICNKISKSTINMPNNWQLENPTEVTAASIEKVNKLPKSPRNRFLLPPKGGTETTRRDIYNQILKDMAAFPENTIVTAVLASVDVTDNCAYVAKWDESSDRIKKVLQRQLPLQELDQLPDYGDIFAVLDSINNIITRITINSSSAGGGYDAYLIDFGEHIHFDGNETIFKLPDDIKRLPAQAIRCDLINCDIANMHCFVNTYIKIRVHENNNSTLVAEPVIDRLSRPTKTNTTKYPAGITEDDMAMLNEIDESTSDPLKAVLGFRPKDEQRICRHYDPKLNGCFKGNNCRFAHEPFAPNGATKDVELARALPETIFDTTVHFEIGSIVGILITFINGPTEVYGQFLDGSPPLVWDKKDVPENKRTFKSKPRLLDIVLALYSDGCFYRAQIIDEFPSEYMIFYVDYGNTEFVPLSCLAPCENVDSFKPHRVFSFHIEGIVRSKNLTHQKTIECIEYLKSKLLNTEMNVHLVQRLPDGFLIRFLDDWKYIPEQLLQRNYAQVSQ
Consider B2, for which, in the test with Vasa (Drosophila), the binding entry was “binds weakly”.
